Source: PMC11316798, “Signaling by a bacterial phytochrome histidine kinase involves a conformational cascade reorganizing the dimeric photoreceptor” (Nature Communications, 2024)
Results are given in words; binding and its absence hold for the method and conditions named.

Legend:
[1] = biological target: T1, Pseudomonas syringae bacteriophytochrome photoreceptor BphP1 (PsBphP1), full length, assembled with biliverdin (Pseudomonas syringae) (UniProt Q885D3); test: SEC; PsBphP1 (3 mg mL^-1) as Pr or Pfr mixed with PsAlgB (3 mg mL^-1) and 1.5 mM ATP, incubated 10 min; running buffer with 0.15 mM ATP, 5 mM MgCl2, 0.2 mM Na2EDTA, 175 mM KSCN, pH 7.5, 22 °C; both purified
T1 sequence (chain, biliverdin (BV) covalently linked via a thioether linkage to Cys16): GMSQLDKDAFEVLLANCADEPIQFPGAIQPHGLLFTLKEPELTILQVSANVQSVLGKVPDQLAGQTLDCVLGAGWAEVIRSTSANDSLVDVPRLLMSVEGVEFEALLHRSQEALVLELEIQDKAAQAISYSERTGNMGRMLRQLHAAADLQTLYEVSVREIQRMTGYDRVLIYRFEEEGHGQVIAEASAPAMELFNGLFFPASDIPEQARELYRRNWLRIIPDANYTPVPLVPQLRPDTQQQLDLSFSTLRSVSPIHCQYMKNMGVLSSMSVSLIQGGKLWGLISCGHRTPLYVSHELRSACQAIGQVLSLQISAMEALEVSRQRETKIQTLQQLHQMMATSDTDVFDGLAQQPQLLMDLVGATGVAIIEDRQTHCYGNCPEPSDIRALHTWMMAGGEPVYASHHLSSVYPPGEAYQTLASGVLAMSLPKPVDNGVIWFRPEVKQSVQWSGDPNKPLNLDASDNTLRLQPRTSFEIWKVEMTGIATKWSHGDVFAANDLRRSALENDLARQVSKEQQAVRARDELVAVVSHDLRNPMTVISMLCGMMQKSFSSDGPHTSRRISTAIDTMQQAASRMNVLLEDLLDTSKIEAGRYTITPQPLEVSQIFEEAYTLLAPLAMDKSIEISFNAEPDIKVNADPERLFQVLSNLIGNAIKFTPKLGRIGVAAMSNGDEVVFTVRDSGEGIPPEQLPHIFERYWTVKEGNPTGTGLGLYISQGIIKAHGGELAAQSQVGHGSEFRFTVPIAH

[2] = biological target: T1, Pseudomonas syringae bacteriophytochrome photoreceptor BphP1 (PsBphP1), full length, assembled with biliverdin (Pseudomonas syringae); test: SEC; PsBphP1 (3 mg mL^-1) as Pr or Pfr mixed with the response regulator (3 mg mL^-1), incubated 10 min, without ATP; Superdex 200 Increase, 22 °C, 175 mM KSCN buffer pH 7.5 with 5 mM MgCl2 and 0.2 mM Na2EDTA; both purified

binding [1]: no binding (tested: 3 mg mL^-1 each) | binding [2]: no binding (tested: 3 mg mL^-1 each)
B1: Pseudomonas syringae response regulator AlgB (PsAlgB), full length (protein, UniProt Q88AQ2 1-448)
chain: GMEAATENQGRILLVDDESAILRTFRYCLEDEGYSVATANSAAQADTLMQRQVFDLCFLDLRLGEDNGLDVLAQMRIQAPWMRVVIVTAHSAVDTAVDAIQAGAADYLVKPCSPDQLRLATAKQLEVRQLSARLEALEGEVRKPKDGLDSHSPSMMAILETARQVAVTDANILILGESGTGKGELARAIHGWSKRAKKSCVTINCPSLTAELMESELFGHSRGAFTGASESTLGRVNQADGGTLFLDEIGDFPLTLQPKLLRFIQDKEYERVGDPVTRRADVRILAATNLNLEDMVRSGRFREDLLYRLNVITLHLPALRERSEDILTLADRFLARFVKEYARPARGFSEEARAALLNYRWPGNIRELRNVIERASIICPQERVEVSHLGMAEQPANNAPRVGAALSLDELEKAHIGAVLATSETLDQAAKTLGIDASTLYRKRKQYNL
